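Assay of Toxoplasma gondii numbers, read through their beta-galactosidase reporter with a colour substrate. Tested at 50 µM. The record gives no direction; the compounds picked for IC50 retests had high values, so higher reads as fewer parasites. About 18,000 compounds were tested under these conditions; 0.94% (about 170) showed 50% or more at least once.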

Each number is a percent effect as filed.
The record does not define 0% and 100%; most values in the screen are far below 50% and negative numbers occur (in some assays of this library far below -100).
Compounds were drawn at random from those tested, without regard to their results.

| # | Compound | Percent Effect |
|---|---|---|
| 1 | `CNCCC1CCN(c2ccncc2)CC1` | 27.9% |
| 2 | `Cc1n[nH]cc1CNCC(O)c1ccccc1` (centres undefined) | 24.66% |
| 3 | `COCC1CCN(Cc2cc(C(C)=O)cn2C)C1` (centres undefined) | -9.361% |
| 4 | `C=Cc1ccc(NC(=O)N(C)C2CCN(C)C2)cc1` (centres undefined) | -13.57% |
| 5 | `CCc1noc(C)c1C(=O)N(C)CC1(C)CCN(C)C1` (centres undefined) | -20.4% |
| 6 | `N#CCc1ccc2c(c1)CCO2` | -4.11% |
| 7 | `CN(CCn1ccnc1)Cc1ccccc1OCCO` | -0.4936% |
| 8 | `CC[C@H](O)CN1CCOC2(CCOCC2)CC1` | 4.16% |
| 9 | `O=C(Nc1ccc(F)cc1)NC1CCNCC1` | -18.33% |
| 10 | `O=C(NC1CC1)c1cccc(CNc2ccccn2)c1` | 0.7497% |
| 11 | `CNC1(C(=O)OC)CCCCC1` | -0.9282% |
| 12 | `CC1CCC(NC(=O)c2ccc(S(N)(=O)=O)cc2)CC1` (centres undefined) | 5.234% |
| 13 | `CC(C)N(Cc1cccnc1)S(C)(=O)=O` | -24.22% |
| 14 | `O=C(c1ccc(Cl)cc1)N1CCCNCC1` | 0.9615% |
| 15 | `OC1(c2ncc[nH]2)CCNCC1` | 3.136% |
| 16 | `CN(CC(=O)Nc1cccc(S(N)(=O)=O)c1)C1CC1` | -13.16% |
| 17 | `NC(=O)NC1CCNC1` (centres undefined) | 7.559% |
| 18 | `Cn1ccc(C(=O)NCc2nccs2)cc1=O` | -6.16% |
| 19 | `COc1ccccc1C(N)c1nccn1C` (centres undefined) | 24.71% |
| 20 | `CCc1ncc(C(=O)NCCS(=O)(=O)CC(C)C)cn1` | 21.13% |
| 21 | `NC(=O)c1ccc(NC(=O)c2cc(Cl)ccn2)cc1` | -20.48% |
| 22 | `CC(C)NC(=O)c1cccc(CN)c1` | -5.709% |
| 23 | `C[S+]([O-])Cc1ccccc1NC(=O)c1ccccn1` (centres undefined) | -3.478% |
| 24 | `CCC(NC(=O)NCC(=O)N1CCCC1)c1nccs1` (centres undefined) | 2.804% |
| 25 | `O=C(NCc1ccc(Cl)cn1)N(CCO)CC(F)F` | -1.344% |
| 26 | `Cc1nc(N)nc(C)c1CC(=O)N[C@H]1C[C@@H]2OCC[C@H]12` | -1.135% |
| 27 | `Cc1ccc(C(=O)NCC(C)N2CCCC2)o1` (centres undefined) | -10.32% |
| 28 | `Cn1c(=O)[nH]c2cc(C(=O)N3CCCCCC3)ccc21` | -32.44% |
| 29 | `CN(C)C(C)(C)CNC(=O)NCCC1CCCCO1` (centres undefined) | -5.354% |
| 30 | `CCOC(=O)Cn1nnc(-c2ccc(F)cc2)n1` | -6.184% |
| 31 | `Cn1c(CCN)nc2c(F)cccc21` | -9.001% |
| 32 | `CCCNC(=O)C(C)NC(=O)Cc1cccc(OC)c1` (centres undefined) | -0.3985% |
| 33 | `CCN1CCN(C(=O)C2COc3ccccc3C2)CC1` (centres undefined) | -4.901% |
| 34 | `Cc1ccnc(NCCNC2CCSCC2)c1` | -4.306% |
| 35 | `COc1ccc(C)cc1NC(=O)NC1CCN(C)CC1` | -45.72% |
| 36 | `CC(C)n1cncn1` | -15.82% |
| 37 | `N#Cc1ccc(-n2nccc2N)cc1` | 92.39% |
| 38 | `O=C(CN1CCCC(O)C1)NCCCc1ncc[nH]1` (centres undefined) | -4.648% |
| 39 | `CC(C)Oc1cc(Br)cc(C(=O)NCCC(N)=O)c1` | 1.411% |
| 40 | `CC[C@@]1(O)CCN(Cc2nc(CCOC)no2)C[C@H]1O` | 0.9936% |
| 41 | `O=C(COc1ncccn1)Nc1ccc(F)cc1F` | -4.635% |
| 42 | `CCC1CN(C(=O)c2cnc(C)cn2)CCO1` (centres undefined) | -9.202% |
| 43 | `CN(CCCNC(=O)C1CCC(=O)N1)c1ccccc1` (centres undefined) | -4.052% |
| 44 | `NC(=O)c1ccc(-c2ccc(F)cc2)o1` | 5.698% |
| 45 | `Cc1cnc(CNC(=O)Cn2nc(C)c(C)c2C)cn1` | -2.259% |
| 46 | `CCOC(=O)c1cnc2ccnn2c1/C=C/N(C)C` | -1.145% |
| 47 | `CC1CNCCS(=O)(=O)C1` (centres undefined) | 1.716% |
| 48 | `C[S+]([O-])C1(CNC(=O)c2ccnc3ccccc23)CC1` (centres undefined) | -10.98% |
| 49 | `CC(C)(C)c1nnc(CN)s1` | 1.028% |
| 50 | `CC(C)c1nnc(CN(C)CC(O)C2CC2)o1` (centres undefined) | -10.38% |

Some entries from above, unchanged:

- O=C(Nc1ccc(F)cc1)NC1CCNCC1 : -18.33%
- CN(CCCNC(=O)C1CCC(=O)N1)c1ccccc1 (centres undefined) : -4.052%
- CCOC(=O)c1cnc2ccnn2c1/C=C/N(C)C : -1.145%
- CN(CCn1ccnc1)Cc1ccccc1OCCO : -0.4936%

From ChEMBL document CHEMBL3988442, “University of Dundee, Small-Polar-MMV Screening Library” (2021).